For assay [1], the target named is T1, mKGN–MC–FLAG–CARF (human), Q9NXV6.
T1 chain: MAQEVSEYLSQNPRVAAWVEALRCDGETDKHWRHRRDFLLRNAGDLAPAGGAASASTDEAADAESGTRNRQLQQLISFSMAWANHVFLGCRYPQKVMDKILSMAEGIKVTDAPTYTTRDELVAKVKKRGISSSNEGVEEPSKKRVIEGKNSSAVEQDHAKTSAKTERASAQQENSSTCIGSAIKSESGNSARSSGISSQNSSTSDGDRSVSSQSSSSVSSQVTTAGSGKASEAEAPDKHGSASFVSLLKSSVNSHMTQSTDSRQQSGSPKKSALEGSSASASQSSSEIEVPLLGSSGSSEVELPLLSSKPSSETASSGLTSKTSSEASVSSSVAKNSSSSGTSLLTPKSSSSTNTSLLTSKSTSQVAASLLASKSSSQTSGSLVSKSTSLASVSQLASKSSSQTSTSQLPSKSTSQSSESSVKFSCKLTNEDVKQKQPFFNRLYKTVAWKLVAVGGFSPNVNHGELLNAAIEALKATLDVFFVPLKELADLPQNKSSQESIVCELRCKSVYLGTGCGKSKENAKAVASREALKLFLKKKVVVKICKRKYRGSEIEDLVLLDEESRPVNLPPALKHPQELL
As to the kind of experiment: split reporter; mKG reporter system (MBL) in Flp-In T-Rex 293 cells transfected with phmKGN–MC–FLAG–CARF and phmKGC–MC–XRN2; fixed 48 h after transfection; fluorescence microscopy. As to conditions: remark: other sources report otherwise.

For assay [2], the target named is T2, FLAG-tagged CARF (collaborator of alternative reading frame protein) (human), Q9NXV6.
T2 chain: T1 chain
Nature of the assay: co-IP; anti-FLAG immunoprecipitation from TOCARF cells induced with 0, 0.1 or 10 ng/ml doxycycline (Flp-In T-Rex 293 cells as control); immunoblot. As to conditions: remark: other sources report otherwise. On the technique in general: In western blotting, separated proteins are transferred to a membrane and probed.

For assay [3], the target named is T3, CARF, endogenous (human (endogenous in 293T)), Q9NXV6.
T3 chain: T1 chain
As to the kind of experiment: co-IP; endogenous proteins from 293T cell lysate (1 mg) in buffer A; anti-CARF or anti-XRN2 on Dynabeads protein G, 3 h at 4°C; normal rabbit IgG as control; immunoblot. As to conditions: remark: other sources report otherwise.

The target in assay [4] is T4, FLAG–CARF stably expressed in Flp-In T-Rex 293 cells (human), Q9NXV6.
T4 chain: T1 chain
Nature of the assay: co-IP; anti-FLAG immunoprecipitation from Flp-In T-Rex 293 cells stably expressing FLAG–CARF or FLAG–fibrillarin; immunoprecipitates treated without or with RNase A; immunoblot. The note with it: remark: other sources report otherwise.

For assay [5], the target named is T5, mKGC–MC–FLAG–CARF (human), Q9NXV6.
T5 chain: T1 chain
Nature of the assay: split reporter; mKG reporter system, the fragments exchanged (phmKGC-MC-FLAG-CARF and phmKGN-MC-XRN2); data not shown. As to conditions: remark: other sources report otherwise.

The target of assay [6] is T6, recombinant FLAG–CARF (TF–CARF–FLAG) (human), Q9NXV6.
T6 chain: T1 chain
Nature of the assay: pull-down; isolated recombinant TF–CARF–FLAG and TF–XRN2–TEV–HA mixed, pulled down with anti-FLAG conjugated agarose resin; both purified. The note with it: remark: other sources report otherwise.

In assay [7] the target is T7, FLAG-tagged CARF (collaborator of alternative reading frame protein) (human) (UniProt Q9NXV6).
T7 sequence: T1 chain
Nature of the assay: co-IP; anti-FLAG immunoprecipitation from TOCARF cells transfected with HA–XRN2 mutants or empty vector, with or without doxycycline (10 ng/ml, 72 h); immunoblot with anti-HA.

Assay [8] deals with T8, HA-tagged XRN2 (human), Q9H0D6.
T8 chain: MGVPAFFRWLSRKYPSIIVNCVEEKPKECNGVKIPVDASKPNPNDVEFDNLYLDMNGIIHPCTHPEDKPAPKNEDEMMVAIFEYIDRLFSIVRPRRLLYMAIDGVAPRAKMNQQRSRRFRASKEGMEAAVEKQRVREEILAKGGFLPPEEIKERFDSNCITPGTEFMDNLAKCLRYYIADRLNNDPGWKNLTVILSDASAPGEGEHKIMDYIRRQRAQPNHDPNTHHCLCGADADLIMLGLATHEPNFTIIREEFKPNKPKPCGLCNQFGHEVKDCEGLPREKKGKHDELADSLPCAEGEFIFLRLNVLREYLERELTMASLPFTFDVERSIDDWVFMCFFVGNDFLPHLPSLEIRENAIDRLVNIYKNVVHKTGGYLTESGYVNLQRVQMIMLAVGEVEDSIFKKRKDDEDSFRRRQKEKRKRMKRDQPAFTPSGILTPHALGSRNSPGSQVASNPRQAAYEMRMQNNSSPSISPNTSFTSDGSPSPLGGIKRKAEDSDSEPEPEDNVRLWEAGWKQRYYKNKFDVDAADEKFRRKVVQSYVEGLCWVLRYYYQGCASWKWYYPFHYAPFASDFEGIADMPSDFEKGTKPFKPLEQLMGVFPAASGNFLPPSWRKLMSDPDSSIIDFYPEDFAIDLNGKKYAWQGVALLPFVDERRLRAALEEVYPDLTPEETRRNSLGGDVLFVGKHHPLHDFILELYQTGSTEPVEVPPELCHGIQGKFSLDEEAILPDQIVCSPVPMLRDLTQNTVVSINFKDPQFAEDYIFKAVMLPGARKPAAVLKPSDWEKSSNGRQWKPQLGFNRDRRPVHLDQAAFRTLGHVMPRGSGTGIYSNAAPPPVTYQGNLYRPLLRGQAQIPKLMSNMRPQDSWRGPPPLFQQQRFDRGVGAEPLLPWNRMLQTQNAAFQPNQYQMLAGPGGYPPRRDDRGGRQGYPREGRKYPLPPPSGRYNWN
As to the kind of experiment: co-IP; HA–XRN2 as bait: TOCARF cells with or without 100 ng/ml doxycycline, transfected with HA–XRN2; anti-HA and protein G–Sepharose, 4 h at 4°C, washed in buffer A; immunoblot. As to conditions: remark: other sources report otherwise.

For assay [9], the target named is T9, 5′-3′ exoribonuclease 2 (XRN2), endogenous (human (endogenous in Flp-In T-Rex 293 and 293T)), Q9H0D6.
T9 chain: T8 chain
Nature of the assay: co-IP; endogenous proteins from 293T cell lysate (1 mg) in buffer A; anti-CARF or anti-XRN2 on Dynabeads protein G, 3 h at 4°C; normal rabbit IgG as control; immunoblot. As to conditions: remark: other sources report otherwise.

We go through seven molecules from article PMC4666357.

No constants are given. Whether binding was seen depends on the method and setting. For part of these data: In cells and extracts the contact can be indirect. Some binding calls cover weakened binding; strength is not graded here. For part of these data: Sequences can lack the tags named with a protein.

B1: mKGC–MC–XRN2, Q9H0D6-1 1-950 (enzyme)
chain: T8 chain
Turning to B1, the binding result in [1] is on record as “binds”.

B2: 5′-3′ exoribonuclease 2 (XRN2), endogenous, Q9H0D6-1 1-950 (enzyme)
chain: T8 chain
Take B2: the binding entry in [2], in assay [3] and in assay [4] was “binds” each time.

B3: mKGN–MC–XRN2, Q9H0D6-1 1-950 (enzyme)
chain: T8 chain
With B3, the binding result in assay [5] is listed as “binds”.

B4: recombinant HA–XRN2 (TF–XRN2–TEV–HA), Q9H0D6-1 1-950 (enzyme)
chain: T8 chain
B4: the binding result in assay [6] is given as “binds”.

B5: HA-tagged truncated XRN2 mutant xN1 (domain or fragment, UniProt Q9H0D6-1 1-680)
chain: MGVPAFFRWLSRKYPSIIVNCVEEKPKECNGVKIPVDASKPNPNDVEFDNLYLDMNGIIHPCTHPEDKPAPKNEDEMMVAIFEYIDRLFSIVRPRRLLYMAIDGVAPRAKMNQQRSRRFRASKEGMEAAVEKQRVREEILAKGGFLPPEEIKERFDSNCITPGTEFMDNLAKCLRYYIADRLNNDPGWKNLTVILSDASAPGEGEHKIMDYIRRQRAQPNHDPNTHHCLCGADADLIMLGLATHEPNFTIIREEFKPNKPKPCGLCNQFGHEVKDCEGLPREKKGKHDELADSLPCAEGEFIFLRLNVLREYLERELTMASLPFTFDVERSIDDWVFMCFFVGNDFLPHLPSLEIRENAIDRLVNIYKNVVHKTGGYLTESGYVNLQRVQMIMLAVGEVEDSIFKKRKDDEDSFRRRQKEKRKRMKRDQPAFTPSGILTPHALGSRNSPGSQVASNPRQAAYEMRMQNNSSPSISPNTSFTSDGSPSPLGGIKRKAEDSDSEPEPEDNVRLWEAGWKQRYYKNKFDVDAADEKFRRKVVQSYVEGLCWVLRYYYQGCASWKWYYPFHYAPFASDFEGIADMPSDFEKGTKPFKPLEQLMGVFPAASGNFLPPSWRKLMSDPDSSIIDFYPEDFAIDLNGKKYAWQGVALLPFVDERRLRAALEEVYPDLTPEETRRNSLG
In the case of B5, in assay [7], the binding result was “binds”.

B6: FLAG-tagged CARF (collaborator of alternative reading frame protein), Q9NXV6 1-580 (protein)
chain: T1 chain
For the molecule B6, in assay [8], the binding entry is “binds”.

B7: CARF, endogenous, Q9NXV6 1-580 (protein)
chain: T1 chain
For B7, in assay [9], the binding result was “binds”.
